± gives the standard deviation of the averaged measurements. Only a part is listed here, and it is no random draw. Most entries show no effect beyond the scatter of the controls.
Compound: Nc1ncnc2c1ncn2[C@@H]1O[C@H](COP(=O)(O)OP(=O)(O)NP(=O)(O)O)[C@@H](O)[C@H]1O [adenylyl imidodiphosphate]
Test: NP40-soluble protein abundance relative to vehicle (solubility fold change) (ratio); higher = more soluble protein in presence of AMP-PNP
Outline: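 Across three independent experiments, values are fold changes against the detergent-processed vehicle for each replicate, based on vsn-normalised intensities. The samples were Jurkat crude lysate treated with eight concentrations (0.1 to 10 mM) for 10 min at room temperature and then 3 min at 37 °C. Lysate was solubilised with 0.8% NP40 and benzonase, ultracentrifuged, and the supernatant analysed by TMT-labelled LC-MS/MS.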

Sequences of proteins named here, by UniProt entry; tags and fusion partners are left off. A change or cut given only in a name is not applied to a line headed by its entry.
UniProt Q9Y483: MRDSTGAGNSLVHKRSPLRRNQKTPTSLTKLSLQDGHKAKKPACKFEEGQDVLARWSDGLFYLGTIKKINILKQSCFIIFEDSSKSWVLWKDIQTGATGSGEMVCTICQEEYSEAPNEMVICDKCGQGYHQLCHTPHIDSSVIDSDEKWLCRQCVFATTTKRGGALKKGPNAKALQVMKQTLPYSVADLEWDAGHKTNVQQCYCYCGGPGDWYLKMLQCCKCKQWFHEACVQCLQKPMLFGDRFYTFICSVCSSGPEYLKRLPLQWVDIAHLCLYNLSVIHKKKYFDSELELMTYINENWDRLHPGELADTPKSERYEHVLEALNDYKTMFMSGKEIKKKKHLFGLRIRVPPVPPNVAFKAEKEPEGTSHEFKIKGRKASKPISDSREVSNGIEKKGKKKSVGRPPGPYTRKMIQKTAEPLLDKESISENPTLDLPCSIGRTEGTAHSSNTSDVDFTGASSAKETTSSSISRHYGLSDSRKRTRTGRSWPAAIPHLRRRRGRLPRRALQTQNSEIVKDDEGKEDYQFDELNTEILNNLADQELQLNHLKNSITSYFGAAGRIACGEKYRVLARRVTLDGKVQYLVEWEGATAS
UniProt Q9BZL6: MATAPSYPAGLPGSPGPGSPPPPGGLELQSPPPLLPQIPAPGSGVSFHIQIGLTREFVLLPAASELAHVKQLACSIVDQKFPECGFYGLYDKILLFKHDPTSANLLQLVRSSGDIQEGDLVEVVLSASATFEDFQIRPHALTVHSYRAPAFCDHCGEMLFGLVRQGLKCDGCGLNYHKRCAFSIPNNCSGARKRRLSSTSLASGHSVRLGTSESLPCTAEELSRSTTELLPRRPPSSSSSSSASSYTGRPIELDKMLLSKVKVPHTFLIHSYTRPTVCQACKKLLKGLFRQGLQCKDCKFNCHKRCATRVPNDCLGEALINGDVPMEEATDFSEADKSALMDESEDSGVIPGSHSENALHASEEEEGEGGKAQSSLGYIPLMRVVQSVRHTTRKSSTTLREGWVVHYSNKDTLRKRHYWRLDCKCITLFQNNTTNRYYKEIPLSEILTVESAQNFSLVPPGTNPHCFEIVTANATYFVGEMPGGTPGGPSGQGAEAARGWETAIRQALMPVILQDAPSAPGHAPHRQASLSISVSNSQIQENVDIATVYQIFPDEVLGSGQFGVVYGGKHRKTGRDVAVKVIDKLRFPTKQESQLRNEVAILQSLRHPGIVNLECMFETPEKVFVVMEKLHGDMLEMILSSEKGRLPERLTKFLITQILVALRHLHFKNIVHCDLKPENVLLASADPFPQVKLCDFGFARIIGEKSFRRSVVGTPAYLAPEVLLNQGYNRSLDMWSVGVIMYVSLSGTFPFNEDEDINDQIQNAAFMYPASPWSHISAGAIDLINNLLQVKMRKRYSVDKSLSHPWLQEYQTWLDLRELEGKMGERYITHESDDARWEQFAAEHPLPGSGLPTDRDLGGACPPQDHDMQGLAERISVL
UniProt Q8TE99: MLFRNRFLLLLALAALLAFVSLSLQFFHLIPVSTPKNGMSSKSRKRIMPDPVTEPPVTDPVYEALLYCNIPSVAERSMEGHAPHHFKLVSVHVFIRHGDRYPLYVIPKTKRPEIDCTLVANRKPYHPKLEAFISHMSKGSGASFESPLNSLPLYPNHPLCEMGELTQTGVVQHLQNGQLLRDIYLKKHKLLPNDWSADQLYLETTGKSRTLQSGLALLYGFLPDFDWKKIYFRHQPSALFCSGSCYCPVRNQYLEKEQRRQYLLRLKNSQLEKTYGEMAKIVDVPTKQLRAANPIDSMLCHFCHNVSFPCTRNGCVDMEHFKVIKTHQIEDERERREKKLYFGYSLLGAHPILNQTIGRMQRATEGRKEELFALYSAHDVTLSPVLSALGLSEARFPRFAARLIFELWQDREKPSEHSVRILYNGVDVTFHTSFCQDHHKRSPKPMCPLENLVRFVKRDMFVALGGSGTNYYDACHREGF
UniProt Q9GZV4: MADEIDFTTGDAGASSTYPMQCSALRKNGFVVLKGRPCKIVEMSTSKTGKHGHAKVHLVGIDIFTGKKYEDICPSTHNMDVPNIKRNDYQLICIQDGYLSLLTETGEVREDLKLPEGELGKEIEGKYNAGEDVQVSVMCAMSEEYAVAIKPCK
UniProt P01040: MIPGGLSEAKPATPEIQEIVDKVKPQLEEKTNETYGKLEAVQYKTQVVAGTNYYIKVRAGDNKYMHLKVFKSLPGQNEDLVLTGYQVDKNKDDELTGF
UniProt Q9H6V9: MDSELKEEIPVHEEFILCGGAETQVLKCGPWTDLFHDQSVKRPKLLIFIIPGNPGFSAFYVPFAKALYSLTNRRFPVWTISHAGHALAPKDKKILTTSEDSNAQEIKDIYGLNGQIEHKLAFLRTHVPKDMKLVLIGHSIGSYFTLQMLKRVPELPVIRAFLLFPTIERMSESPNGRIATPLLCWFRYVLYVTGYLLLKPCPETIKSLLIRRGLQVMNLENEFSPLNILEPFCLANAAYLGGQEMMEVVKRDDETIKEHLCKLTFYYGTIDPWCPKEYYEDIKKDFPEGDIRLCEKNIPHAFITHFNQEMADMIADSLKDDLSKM
UniProt Q96HP4: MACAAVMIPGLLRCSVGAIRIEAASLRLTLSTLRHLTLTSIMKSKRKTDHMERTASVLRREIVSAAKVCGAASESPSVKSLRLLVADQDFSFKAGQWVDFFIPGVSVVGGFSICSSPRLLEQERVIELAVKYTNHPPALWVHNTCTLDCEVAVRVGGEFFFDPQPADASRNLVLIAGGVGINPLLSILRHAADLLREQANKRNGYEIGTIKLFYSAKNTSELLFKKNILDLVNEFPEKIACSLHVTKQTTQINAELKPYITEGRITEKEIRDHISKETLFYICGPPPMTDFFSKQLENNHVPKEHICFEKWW
UniProt P08069, whole entry, looked up: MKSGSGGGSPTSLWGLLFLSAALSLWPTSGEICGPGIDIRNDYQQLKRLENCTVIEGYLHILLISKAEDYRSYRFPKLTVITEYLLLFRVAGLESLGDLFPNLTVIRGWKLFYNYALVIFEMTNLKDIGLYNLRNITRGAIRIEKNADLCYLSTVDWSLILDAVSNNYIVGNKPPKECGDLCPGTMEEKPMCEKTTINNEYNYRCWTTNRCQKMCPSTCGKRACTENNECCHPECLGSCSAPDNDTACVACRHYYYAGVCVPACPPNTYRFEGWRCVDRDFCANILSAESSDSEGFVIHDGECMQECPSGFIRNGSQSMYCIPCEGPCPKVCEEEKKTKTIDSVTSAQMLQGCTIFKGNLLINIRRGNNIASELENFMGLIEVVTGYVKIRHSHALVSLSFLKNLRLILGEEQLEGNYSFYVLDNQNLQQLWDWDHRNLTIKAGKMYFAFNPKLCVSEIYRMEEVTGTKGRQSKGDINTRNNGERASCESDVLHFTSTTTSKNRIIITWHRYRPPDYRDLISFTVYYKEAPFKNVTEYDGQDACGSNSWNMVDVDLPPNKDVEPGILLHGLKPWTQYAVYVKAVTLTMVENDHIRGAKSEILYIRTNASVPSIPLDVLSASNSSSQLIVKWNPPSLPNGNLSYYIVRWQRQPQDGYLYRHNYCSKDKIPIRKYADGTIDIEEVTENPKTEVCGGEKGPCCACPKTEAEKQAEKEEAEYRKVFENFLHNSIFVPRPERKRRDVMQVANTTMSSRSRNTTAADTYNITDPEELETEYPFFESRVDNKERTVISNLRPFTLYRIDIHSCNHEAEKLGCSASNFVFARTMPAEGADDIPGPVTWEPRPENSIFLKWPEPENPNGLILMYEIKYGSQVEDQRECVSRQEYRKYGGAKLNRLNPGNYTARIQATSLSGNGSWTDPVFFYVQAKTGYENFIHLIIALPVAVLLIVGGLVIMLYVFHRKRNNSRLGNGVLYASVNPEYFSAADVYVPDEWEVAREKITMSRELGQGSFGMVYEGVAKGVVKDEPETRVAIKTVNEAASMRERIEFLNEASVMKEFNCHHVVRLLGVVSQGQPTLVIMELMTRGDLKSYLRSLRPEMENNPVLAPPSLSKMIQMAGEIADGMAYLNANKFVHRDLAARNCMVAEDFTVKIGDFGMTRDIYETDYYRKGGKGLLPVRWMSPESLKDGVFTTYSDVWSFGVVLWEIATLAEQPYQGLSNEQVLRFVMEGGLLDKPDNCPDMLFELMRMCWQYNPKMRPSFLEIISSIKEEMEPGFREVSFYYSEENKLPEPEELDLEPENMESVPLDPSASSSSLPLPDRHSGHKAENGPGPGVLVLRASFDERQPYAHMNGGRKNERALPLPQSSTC
UniProt Q8NCN5: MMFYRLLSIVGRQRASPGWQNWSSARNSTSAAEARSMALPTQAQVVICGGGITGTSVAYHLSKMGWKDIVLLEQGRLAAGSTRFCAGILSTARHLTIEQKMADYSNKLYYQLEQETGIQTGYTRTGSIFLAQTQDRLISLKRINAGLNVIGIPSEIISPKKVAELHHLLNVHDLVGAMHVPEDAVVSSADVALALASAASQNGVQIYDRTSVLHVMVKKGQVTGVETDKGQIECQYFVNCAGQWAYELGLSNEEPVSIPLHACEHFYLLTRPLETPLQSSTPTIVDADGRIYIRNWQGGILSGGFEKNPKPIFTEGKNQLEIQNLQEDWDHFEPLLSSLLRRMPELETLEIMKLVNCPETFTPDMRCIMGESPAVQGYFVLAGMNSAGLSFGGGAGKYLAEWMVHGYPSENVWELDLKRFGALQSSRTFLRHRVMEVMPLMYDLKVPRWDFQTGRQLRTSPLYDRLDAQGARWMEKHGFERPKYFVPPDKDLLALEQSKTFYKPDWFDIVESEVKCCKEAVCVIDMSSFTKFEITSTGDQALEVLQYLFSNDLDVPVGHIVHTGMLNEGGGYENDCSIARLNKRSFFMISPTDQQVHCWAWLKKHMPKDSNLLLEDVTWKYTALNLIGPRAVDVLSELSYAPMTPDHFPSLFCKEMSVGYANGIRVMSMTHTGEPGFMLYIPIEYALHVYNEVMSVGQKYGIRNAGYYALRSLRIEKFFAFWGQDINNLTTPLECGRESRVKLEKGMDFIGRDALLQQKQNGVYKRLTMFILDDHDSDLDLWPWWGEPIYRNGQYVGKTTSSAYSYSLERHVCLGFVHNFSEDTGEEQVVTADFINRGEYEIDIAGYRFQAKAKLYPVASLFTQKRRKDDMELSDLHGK
UniProt Q96AA3: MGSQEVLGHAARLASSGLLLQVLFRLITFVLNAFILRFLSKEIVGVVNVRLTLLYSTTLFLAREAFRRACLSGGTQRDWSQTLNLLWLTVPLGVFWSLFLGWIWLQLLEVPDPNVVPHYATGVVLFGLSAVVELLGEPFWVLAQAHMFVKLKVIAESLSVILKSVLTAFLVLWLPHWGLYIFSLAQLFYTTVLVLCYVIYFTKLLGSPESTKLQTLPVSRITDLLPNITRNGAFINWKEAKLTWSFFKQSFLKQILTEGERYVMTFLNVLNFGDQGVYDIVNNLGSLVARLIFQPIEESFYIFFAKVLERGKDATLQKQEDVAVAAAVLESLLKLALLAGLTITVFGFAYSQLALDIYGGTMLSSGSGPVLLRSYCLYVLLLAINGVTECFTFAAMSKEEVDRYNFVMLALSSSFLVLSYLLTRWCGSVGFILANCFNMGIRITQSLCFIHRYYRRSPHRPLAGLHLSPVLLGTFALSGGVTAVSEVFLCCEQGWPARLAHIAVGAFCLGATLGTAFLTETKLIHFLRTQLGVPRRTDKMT
UniProt Q92925, whole entry: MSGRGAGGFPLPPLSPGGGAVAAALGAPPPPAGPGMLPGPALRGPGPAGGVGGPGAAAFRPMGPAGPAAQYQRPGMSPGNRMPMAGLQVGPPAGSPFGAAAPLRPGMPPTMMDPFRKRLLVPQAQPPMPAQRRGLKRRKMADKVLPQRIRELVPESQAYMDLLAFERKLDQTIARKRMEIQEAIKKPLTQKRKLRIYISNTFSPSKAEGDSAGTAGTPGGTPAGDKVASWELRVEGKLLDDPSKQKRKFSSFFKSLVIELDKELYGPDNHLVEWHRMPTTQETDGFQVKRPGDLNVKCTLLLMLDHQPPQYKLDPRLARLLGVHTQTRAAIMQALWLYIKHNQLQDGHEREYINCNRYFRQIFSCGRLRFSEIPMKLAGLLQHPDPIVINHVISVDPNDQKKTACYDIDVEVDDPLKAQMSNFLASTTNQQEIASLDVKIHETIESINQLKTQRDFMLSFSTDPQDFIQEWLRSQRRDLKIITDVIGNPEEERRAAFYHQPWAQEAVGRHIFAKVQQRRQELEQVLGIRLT
UniProt A6NED2: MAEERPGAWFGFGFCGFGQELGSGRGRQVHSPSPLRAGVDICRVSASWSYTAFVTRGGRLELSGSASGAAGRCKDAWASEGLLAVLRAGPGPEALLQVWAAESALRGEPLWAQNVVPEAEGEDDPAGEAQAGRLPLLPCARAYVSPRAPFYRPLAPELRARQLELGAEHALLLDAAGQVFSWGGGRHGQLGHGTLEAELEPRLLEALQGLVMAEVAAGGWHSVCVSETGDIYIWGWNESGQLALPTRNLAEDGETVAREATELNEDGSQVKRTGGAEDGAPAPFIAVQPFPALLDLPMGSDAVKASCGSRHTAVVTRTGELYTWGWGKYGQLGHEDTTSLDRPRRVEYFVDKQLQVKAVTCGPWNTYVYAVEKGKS

## C9JZ81 and related entries (UniProt P13010)
concentration: 0.1mM
  NP40-soluble protein abundance: 0.999 ± 0.018
concentration: 0.5mM
  NP40-soluble protein abundance: 1.01 ± 0.046

## D4Q8H0 and related entries (UniProt Q9NYL2+D4Q8H0)
concentration: 0.1mM
  NP40-soluble protein abundance: 1.02 ± 0.0072
concentration: 0.5mM
  NP40-soluble protein abundance: 1.03 ± 0.066

## B4DVL2 and related entries (UniProt Q02083)
concentration: 0.1mM
  NP40-soluble protein abundance: 0.996 ± 0.019
concentration: 0.5mM
  NP40-soluble protein abundance: 1.02 ± 0.0027

## C9JRZ6 and related entries (UniProt Q9NX63)
concentration: 0.1mM
  NP40-soluble protein abundance: 1 ± 0.021
concentration: 0.5mM
  NP40-soluble protein abundance: 1.02 ± 0.065

## B5MBX0 and related entries (UniProt Q96FF9)
concentration: 0.1mM
  NP40-soluble protein abundance: 1.02 ± 0.0095
concentration: 0.5mM
  NP40-soluble protein abundance: 0.999 ± 0.031

## B4DZG1 and related entries (UniProt Q9Y483)
concentration: 0.1mM
  NP40-soluble protein abundance: 0.974 ± 0.025
concentration: 0.5mM
  NP40-soluble protein abundance: 0.959 ± 0.011

## B4DWF2 and related entries (UniProt Q9UKS7)
concentration: 0.1mM
  NP40-soluble protein abundance: 1.03 ± 0.037
concentration: 0.5mM
  NP40-soluble protein abundance: 1.03 ± 0.025

## YDJC (UniProt A8MPS7)
concentration: 0.1mM
  NP40-soluble protein abundance: 0.996 ± 0.011
concentration: 0.5mM
  NP40-soluble protein abundance: 0.964 ± 0.017

## B4DTS2 and related entries (UniProt Q9BZL6)
concentration: 0.1mM
  NP40-soluble protein abundance: 1.06 ± 0.013
concentration: 0.5mM
  NP40-soluble protein abundance: 1.02 ± 0.035

## C9J6P4 and related entries (UniProt Q7Z2W4)
concentration: 0.1mM
  NP40-soluble protein abundance: 1.03 ± 0.015
concentration: 0.5mM
  NP40-soluble protein abundance: 1.05 ± 0.023

## B7ZBM8 and related entries (UniProt O14662)
concentration: 0.1mM
  NP40-soluble protein abundance: 0.968 ± 0.038
concentration: 0.5mM
  NP40-soluble protein abundance: 0.998 ± 0.028

## C9JLU1 and related entries (UniProt P52434)
concentration: 0.1mM
  NP40-soluble protein abundance: 1.02 ± 0.055
concentration: 0.5mM
  NP40-soluble protein abundance: 0.982 ± 0.13

## A6NHB5 and related entries (UniProt Q14202)
concentration: 0.1mM
  NP40-soluble protein abundance: 0.986 ± 0.016
concentration: 0.5mM
  NP40-soluble protein abundance: 0.97 ± 0.017

## B0QY95 and related entries (UniProt Q9NQG6+B0QY95)
concentration: 0.1mM
  NP40-soluble protein abundance: 0.991 ± 0.019
concentration: 0.5mM
  NP40-soluble protein abundance: 1.02 ± 0.025

## B7ZBM3 and related entries (UniProt Q8IVH2)
concentration: 0.1mM
  NP40-soluble protein abundance: 0.957 ± 0.024
concentration: 0.5mM
  NP40-soluble protein abundance: 0.967 ± 0.0099

## D6RHH4 and related entries (UniProt P63244)
concentration: 0.1mM
  NP40-soluble protein abundance: 1.05 ± 0.018
concentration: 0.5mM
  NP40-soluble protein abundance: 0.989 ± 0.084

## A9Z1X7 and related entries (UniProt Q8IYB3)
concentration: 0.1mM
  NP40-soluble protein abundance: 1.01 ± 0.027
concentration: 0.5mM
  NP40-soluble protein abundance: 1.03 ± 0.031

## E5RGS2 and related entries (UniProt Q9H6H4)
concentration: 0.1mM
  NP40-soluble protein abundance: 1.01 ± 0.025
concentration: 0.5mM
  NP40-soluble protein abundance: 1.01 ± 0.026

## B7Z3R9 and related entries (UniProt Q8TE99)
concentration: 0.1mM
  NP40-soluble protein abundance: 0.955 ± 0.017
concentration: 0.5mM
  NP40-soluble protein abundance: 0.982 ± 0.02

## B4E1Q4 and related entries (UniProt O14730)
concentration: 0.1mM
  NP40-soluble protein abundance: 0.986 ± 0.038
concentration: 0.5mM
  NP40-soluble protein abundance: 1.01 ± 0.023

## C9J4W5 and related entries (UniProt Q9GZV4)
concentration: 0.1mM
  NP40-soluble protein abundance: 0.971 ± 0.017
concentration: 0.5mM
  NP40-soluble protein abundance: 0.853 ± 0.085

## C9J0E4 and related entries (UniProt P01040)
concentration: 0.1mM
  NP40-soluble protein abundance: 0.986 ± 0.015
concentration: 0.5mM
  NP40-soluble protein abundance: 1.07 ± 0.096

## C9JYN0 and related entries (UniProt Q16563)
concentration: 0.1mM
  NP40-soluble protein abundance: 1.04 ± 0.093
concentration: 0.5mM
  NP40-soluble protein abundance: 1.05 ± 0.028

## ZNF316 (UniProt A6NFI3)
concentration: 0.1mM
  NP40-soluble protein abundance: 0.987 ± 0.03
concentration: 0.5mM
  NP40-soluble protein abundance: 0.994 ± 0.025

## B4DRG3 and related entries (UniProt Q9H6V9+B5MCE2+B5MDU6+B4DRG3)
concentration: 0.1mM
  NP40-soluble protein abundance: 1.03 ± 0.022
concentration: 0.5mM
  NP40-soluble protein abundance: 1.01 ± 0.025

## B5MCF9 and related entries (UniProt O00541)
concentration: 0.1mM
  NP40-soluble protein abundance: 0.994 ± 0.0021
concentration: 0.5mM
  NP40-soluble protein abundance: 1.014 ± 0.0097

## C9JLB7 and related entries (UniProt Q96HP4)
concentration: 0.1mM
  NP40-soluble protein abundance: 0.999 ± 0.044
concentration: 0.5mM
  NP40-soluble protein abundance: 1 ± 0.1

## B7Z4W5 and related entries (UniProt Q16773+B7Z4W5)
concentration: 0.1mM
  NP40-soluble protein abundance: 1.05 ± 0.064
concentration: 0.5mM
  NP40-soluble protein abundance: 1.05 ± 0.19

## C9J5X1 and related entries (UniProt P08069)
concentration: 0.1mM
  NP40-soluble protein abundance: 0.988 ± 0.023
concentration: 0.5mM
  NP40-soluble protein abundance: 1 ± 0.011

## A8MT40 and related entries (UniProt Q8NCN5)
concentration: 0.1mM
  NP40-soluble protein abundance: 1.02 ± 0.018
concentration: 0.5mM
  NP40-soluble protein abundance: 0.94 ± 0.097

## A8MQ02 and related entries (UniProt P55196)
concentration: 0.1mM
  NP40-soluble protein abundance: 0.991 ± 0.011
concentration: 0.5mM
  NP40-soluble protein abundance: 0.975 ± 0.012

## B5MDE0 and related entries (UniProt Q96AA3)
concentration: 0.1mM
  NP40-soluble protein abundance: 1.02 ± 0.069
concentration: 0.5mM
  NP40-soluble protein abundance: 0.967 ± 0.1

## FAM171A2 (UniProt A8MVW0)
concentration: 0.1mM
  NP40-soluble protein abundance: 0.979 ± 0.019
concentration: 0.5mM
  NP40-soluble protein abundance: 0.983 ± 0.021

## C9JJN9 and related entries (UniProt Q8N3P4)
concentration: 0.1mM
  NP40-soluble protein abundance: 1.05 ± 0.056
concentration: 0.5mM
  NP40-soluble protein abundance: 1 ± 0.049

## B3KS98 and related entries (UniProt O15372)
concentration: 0.1mM
  NP40-soluble protein abundance: 1.01 ± 0.022
concentration: 0.5mM
  NP40-soluble protein abundance: 1.04 ± 0.025

## C9J494 and related entries (UniProt Q9H000)
concentration: 0.1mM
  NP40-soluble protein abundance: 0.9946 ± 0.0078
concentration: 0.5mM
  NP40-soluble protein abundance: 1 ± 0.022

## B9EGA3 and related entries (UniProt Q92925)
concentration: 0.1mM
  NP40-soluble protein abundance: 1.02 ± 0.02
concentration: 0.5mM
  NP40-soluble protein abundance: 1.01 ± 0.043

## RCCD1 (UniProt A6NED2)
concentration: 0.1mM
  NP40-soluble protein abundance: 1.02 ± 0.077
concentration: 0.5mM
  NP40-soluble protein abundance: 1.04 ± 0.062

## C9JA69 and related entries (UniProt Q8WY36)
concentration: 0.1mM
  NP40-soluble protein abundance: 1 ± 0.025
concentration: 0.5mM
  NP40-soluble protein abundance: 1.02 ± 0.075

## B1AH77 and related entries (UniProt P15153)
concentration: 0.1mM
  NP40-soluble protein abundance: 1.3 ± 0.39
concentration: 0.5mM
  NP40-soluble protein abundance: 0.987 ± 0.072

## C9J0I9 and related entries (UniProt Q86WB0)
concentration: 0.1mM
  NP40-soluble protein abundance: 0.9893 ± 0.0015
concentration: 0.5mM
  NP40-soluble protein abundance: 1.01 ± 0.041

## C9J4Z3 and related entries (UniProt P61513)
concentration: 0.1mM
  NP40-soluble protein abundance: 1.02 ± 0.0097
concentration: 0.5mM
  NP40-soluble protein abundance: 1.03 ± 0.028

## C9JQV3 and related entries (UniProt Q8N1F8)
concentration: 0.1mM
  NP40-soluble protein abundance: 1.01 ± 0.032
concentration: 0.5mM
  NP40-soluble protein abundance: 0.996 ± 0.038

## B4DH95 and related entries (UniProt Q6P9H5)
concentration: 0.1mM
  NP40-soluble protein abundance: 1.03 ± 0.03
concentration: 0.5mM
  NP40-soluble protein abundance: 1.01 ± 0.06

— the supplement of paper PMC6411743
